# Results are given in words; binding and its absence hold for the method and conditions named. Binding can be weak; no strength is given.
# B1: human neuromedin S (peptide)
# peptide: ILQRGSGTAAVDFTKKDHTATWGRPFFLFRPRN
# Target: human FM-3 (human)
# Test: conclusion drawn from the receptor binding test and the calcium assay
binder,measurement,value
B1,binding,binds
